# Measured values taken from patent publication US10525115B2 (Immatics Biotechnologies GmbH, priority 2014, dated 2020).
# Key:
# Set-up in all cases: species or system human
# [1] = system: BMNC of healthy donors; assay: HLA class I ligandome analysis (LC-MS/MS) of healthy donor BMNC; details: HLA class I ligandome, 5 BMNC samples; second figure of the cell
# [2] = system: cancer tissues in comparison to non-cancerous tissues and organs; assay: Presentation profile / over-presentation by label-free LC-MS (XPRESIDENT), tumor versus normal tissues, other proliferative diseases; details: other proliferative diseases / organs (other than AML) that over- or exclusively present the peptide; Table 5
# [3] = system: primary AML samples; assay: HLA class I ligandome analysis (W6/32 immunoaffinity purification, LC-MS/MS) of primary AML samples; details: for Number of positive AMLs: HLA class I ligandome, 15 AML samples; for AML-exclusivity with regard to HLA presentation: versus PBMC and BMNC of healthy donors
# [4] = system: PBMC of healthy donors; assay: HLA class I ligandome analysis (LC-MS/MS) of healthy donor PBMC; details: HLA class I ligandome, 30 PBMC samples; first figure of the cell
Substance,Number of positive healthy donors (BMNC) [1],Proliferative disease and location thereof [2],Number of positive AMLs [3],Number of positive healthy donors (PBMC) [4],AML-exclusivity with regard to HLA presentation [3]
434 (VSNKYGLVF; listed as Homo sapiens) [compound 434],0,"stomach, metastatic, ovary, granulosa cell tumor",0,1,
357 (LEKQLIEL; listed as Homo sapiens) [compound 357],0,"stomach, adenocarcinoma, rectum, adenocarcinoma",0,1,
404 (AEYEDGFSIP; listed as Homo sapiens) [compound 404],1,"pancreas, adenocarcinoma, bone, osteosarcoma",0,0,
401 (EPPAVLLL; listed as Homo sapiens) [compound 401],0/0,"lung, non-small cell lung carcinoma, omentum, adenocarcinoma",1,0/0,AML-exclusivity
397 (TEVSKTPEA; listed as Homo sapiens) [compound 397],2,"lymph node, carcinoma of breast",3,4,
389 (IIKEYTDVY; listed as Homo sapiens) [compound 389],0,"lymph node, carcinoma of breast",0,1,
403 (TTQGQDVTLA; listed as Homo sapiens) [compound 403],0,"stomach, adenocarcinoma, lung, adenocarcinoma",0,1,
423 (TIRNQINAL; listed as Homo sapiens) [compound 423],0/0,"spleen, chronic myeloid leukemia",1,0/0,
388 (EAAAEAKAR; listed as Homo sapiens) [compound 388],0,"lymph node, carcinoma of breast",1,1,
346 (GRIVAFFEF; listed as Homo sapiens) [compound 346],0/0,"kidney, clear cell renal cell carcinoma, thyroid; gland, nodular hyperplasia",1,0/0,
427 (LPIAFKVV; listed as Homo sapiens) [compound 427],0,"pancreas, adenocarcinoma, breast, carcinoma",1,1,
333 (SPIKVTLATL; listed as Homo sapiens) [compound 333],0,"stomach, adenocarcinoma, lymph node, non- Hodgkin's lymphoma",0,3,
441 (LTLGEFLK; listed as Homo sapiens) [compound 441],0,"stomach, metastatic, ovary, Mullerian mixed; tumor",1,1,
421 (RLFEQVMRI; listed as Homo sapiens) [compound 421],0/0,"spleen, chronic myeloid leukemia",2,0/0,
342 (LPKKPSKLEL; listed as Homo sapiens) [compound 342],0,"lung, non-small cell lung carcinoma, schwannoma",1,1,
351 (DPFIIIHSI; listed as Homo sapiens) [compound 351],0,"colon or rectum, uterine cervix, squamous cell carcinoma",2,5,
375 (AEIVGGHEA; listed as Homo sapiens) [compound 375],2/2,"spleen, extramedullary hematopoiesis",1,2/2,
347 (HTPHPAASR; listed as Homo sapiens) [compound 347],0,"kidney, clear cell renal cell carcinoma, thyroid; gland, nodular hyperplasia",0,1,

Substance,Number of positive healthy donors (BMNC) [1],Proliferative disease and location thereof [2],Number of positive AMLs [3],Number of positive healthy donors (PBMC) [4],AML-exclusivity with regard to HLA presentation [3]
438 (LSEADVRA; listed as Homo sapiens) [compound 438],0/0,"stomach, adenocarcinoma, lung, adenocarcinoma",1,0/0,
370 (ATQTPVSNK; listed as Homo sapiens) [compound 370],1,"colon or rectum, rectum, adenocarcinoma",1,0,
343 (RPSAASIDL; listed as Homo sapiens) [compound 343],1,"lung, non-small cell lung carcinoma, schwannoma",1,0,
440 (ELTLGEFLKL; listed as Homo sapiens) [compound 440],0,"stomach, metastatic, ovary, Mullerian mixed; tumor",2,1,
376 (RPPSPALASV; listed as Homo sapiens) [compound 376],1,"spleen, extramedullary hematopoiesis",0,0,
415 (KQPVAATRTAV; listed as Homo sapiens) [compound 415],0/0,"spleen, chronic myeloid leukemia",1,0/0,
437 (DAADELSVGRY; listed as Homo sapiens) [compound 437],0/0,"kidney, clear cell renal cell carcinoma, colon, adenoma",1,0/0,AML-exclusivity
330 (MSVQPTVSL; listed as Homo sapiens) [compound 330],0/0,"stomach, adenocarcinoma, lymph node, non- Hodgkin's lymphoma",1,0/0,
392 (MPATETKKV; listed as Homo sapiens) [compound 392],0,"lymph node, carcinoma of breast",0,1,
380 (MAEKAKQIY; listed as Homo sapiens) [compound 380],0/0,"kidney, clear cell renal cell carcinoma, colon, non- Hodgkin's lymphoma",2,0/0,
433 (LSAGKTSFSF; listed as Homo sapiens) [compound 433],0/0,"stomach, metastatic, ovary, granulosa cell tumor",1,0/0,
355 (DTTLPASAR; listed as Homo sapiens) [compound 355],0/0,"stomach, adenocarcinoma, rectum, adenocarcinoma",1,0/0,
350 (VYVERAEVL; listed as Homo sapiens) [compound 350],0,"lung, non-small cell lung carcinoma, testis, seminoma",1,3,
443 (TLGEFLKL; listed as Homo sapiens) [compound 443],0,"stomach, metastatic, ovary, Mullerian mixed; tumor",2,1,
381 (KLDNQVSKV; listed as Homo sapiens) [compound 381],0,"colon or rectum, prostate, benign nodular; hyperplasia",0,6,
386 (QRNMTKLQL; listed as Homo sapiens) [compound 386],0,"omentum, adenocarcinoma",0,1,
394 (RSDMLKDII; listed as Homo sapiens) [compound 394],0/0,"lymph node, carcinoma of breast",1,0/0,
